Laboratory results: PubChem BioAssay AID504791 (Drosophila RNAi Screening Center, 2011)
In all, the deposit lists about 23,000 reagents; this is an unselected part of those with a known target gene and a result. Of all reagents, 199 (0.86%) are marked active. 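Plate-scaled ratios behind the calls are not deposited; printed light signals are raw; many rows marked increased or decreased are still called inactive.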 A plus sign joins genes that one reagent is predicted to hit.

- Screen: 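Genes of the fly required for silencing by miRNA, siRNA or endo-siRNA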 (primary screen)
- Cell system: Drosophila S2-derived reporter cells
- Knock-down reagent: long dsRNA against Drosophila genes, about 150-250 ng dsRNA per well (siRNA assay); about 80-120 ng (miRNA assay)
- Timing: about 5 days (siRNA assay); about 4 days (miRNA assay)
- Treatment: copper sulfate induction of reporters: 25 µM (siRNA assay); 200 mM stated (miRNA assay), 1-2 days before reading
- Detection: 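Per-well ratio of Renilla over firefly light, expressed relative to that plate's average ratio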
- Reading the numbers: siRNA reporter hit score: higher = 3 marks a strong hit with raised ratio; -3 a strong hit with lowered ratio
- Hit rule: 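First-pass picks had plate-scaled ratios over 1.5 for the siRNA assay, over 1.6 for the miRNA assay, or under 0.6; two distinct dsRNAs had to score alike on retest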

| target gene | amplicon | siRNA reporter hit score | stable siRNA reporter change | miRNA reporter change | stable assay Renilla, run 1 (luminescence) | stable assay firefly, run 1 (luminescence) | call |
| --- | --- | --- | --- | --- | --- | --- | --- |
| CG14282 | DRSC14763 | – | – | – | 6775 | 3.86e5 | inactive |
| CG42586 + CG31775 | DRSC01413 | – | – | – | 2312 | 2.27e5 | inactive |
| frj (farjavit) | DRSC03250 | – | – | – | 14799 | 5.98e5 | inactive |
| CG33267 | DRSC09120 | – | – | – | 3892 | 3.11e5 | inactive |
| CG15824 | DRSC00473 | – | – | – | 7776 | 4.18e5 | inactive |
| CG32625 | DRSC18994 | – | – | – | 4687 | 3.46e5 | inactive |
| Ccp84Ac | DRSC12588 | – | – | – | 5943 | 3.09e5 | inactive |
| ND-B14.7 (NADH dehydrogenase (ubiquinone) B14.7 subunit) | DRSC04544 | – | – | – | 6826 | 5.35e5 | inactive |
| fig (fos intronic gene) | DRSC16270 | – | – | – | 5007 | 3.53e5 | inactive |
| RpL29 (Ribosomal protein L29) | DRSC04650 | – | – | – | 6130 | 3.95e5 | inactive |
| Tret1-1 (Trehalose transporter 1-1) | DRSC07046 | – | reporter ratio raised past the hit cutoff | – | 5830 | 1.99e5 | inactive |
| Tret1-1 (Trehalose transporter 1-1) | DRSC07048 | – | – | – | 5868 | 2.17e5 | inactive |
| CR40450 + CG32767 | DRSC18387 | – | – | – | 7602 | 5.83e5 | inactive |
| CG34235 + CG30058 + CG34312 | DRSC22142 | – | – | – | 9003 | 6.48e5 | inactive |
| CG14625 | DRSC18633 | – | – | – | 6958 | 3.58e5 | inactive |
| CG6700 | DRSC02980 | – | – | – | 5120 | 4.75e5 | inactive |
| alphaTub84D (alpha-Tubulin at 84D) | DRSC12623 | 3 | – | – | 7905 | 4.23e5 | inactive |
| CG8031 | DRSC16364 | – | – | – | 8307 | 4.85e5 | inactive |
| CG15927 | DRSC19742 | – | – | – | 5283 | 5.57e5 | inactive |
| CG11892 | DRSC14428 | – | – | – | 8953 | 5.65e5 | inactive |
| jim | DRSC11889 | – | – | – | 9633 | 3.40e5 | inactive |
| ppk31 (pickpocket 31) | DRSC13811 | – | – | – | 4400 | 2.61e5 | inactive |
| CG2887 | DRSC18235 | – | – | – | 4727 | 3.84e5 | inactive |
| sktl (skittles) | DRSC04715 | – | – | – | 88793 | 3.66e5 | inactive |
| l(1)G0004 (lethal (1) G0004) | DRSC20486 | – | – | – | 8215 | 5.21e5 | inactive |
| CG13594 | DRSC04229 | – | – | – | 6715 | 3.61e5 | inactive |
| CG13594 | DRSC23254 | – | – | – | 3864 | 4.28e5 | inactive |
| Srp14 (Signal recognition particle 14) | DRSC15797 | – | – | – | 6759 | 3.53e5 | inactive |
| jagn (jagunal) | DRSC12152 | – | – | – | 7264 | 5.20e5 | inactive |
| CG14630 | DRSC18166 | – | – | – | 5380 | 3.75e5 | inactive |
| CG14630 | DRSC18653 | – | – | – | 6655 | 3.36e5 | inactive |
| Ibf1 (Insulator binding factor 1) | DRSC16419 | – | – | – | 5950 | 4.39e5 | inactive |
| CG34304 (retired record) | DRSC12810 | – | – | – | 5267 | 3.72e5 | inactive |
| Frl (Formin-like) | DRSC09300 | – | – | – | 6127 | 3.54e5 | inactive |
| Frl (Formin-like) | DRSC10027 | – | – | – | 7861 | 4.99e5 | inactive |
| Frl (Formin-like) | DRSC10716 | – | – | – | 4468 | 4.90e5 | inactive |
| CG18088 | DRSC02654 | – | – | – | 7310 | 3.42e5 | inactive |
| Nepl12 (Neprilysin-like 12) | DRSC16411 | – | – | – | 7860 | 4.30e5 | inactive |
| Spn42Dc (Serpin 42Dc) | DRSC05010 | – | – | – | 6970 | 4.55e5 | inactive |
| CG31156 | DRSC15753 | – | – | – | 8870 | 3.31e5 | inactive |
| CG31156 | DRSC15755 | – | – | – | 7326 | 4.39e5 | inactive |
| CG42518 + MED9 | DRSC06917 | – | – | – | 9500 | 3.57e5 | inactive |
| CG3792 | DRSC02725 | – | – | – | 8483 | 4.55e5 | inactive |
| Cyp12e1 (Cytochrome P450 12e1) | DRSC16622 | – | – | – | 6634 | 3.97e5 | inactive |
| CG42249 | DRSC19383 | – | – | – | 5122 | 3.69e5 | inactive |
| CG42249 | DRSC19826 | – | – | – | 5131 | 5.02e5 | inactive |
| Smr (Smrter) | DRSC19495 | – | reporter ratio raised past the hit cutoff | – | 6582 | 2.05e5 | inactive |
| Smr (Smrter) | DRSC20288 | – | – | – | 4947 | 2.88e5 | inactive |
| Smr (Smrter) | DRSC22986 | – | reporter ratio raised past the hit cutoff | – | 5051 | 1.66e5 | inactive |
| Arc2 (Activity-regulated cytoskeleton associated protein 2) | DRSC06436 | – | – | – | 6999 | 4.70e5 | inactive |
| Tdrd3 (Tudor domain containing 3) | DRSC10016 | – | – | – | 8459 | 3.52e5 | inactive |
| CG11882 | DRSC14425 | – | – | – | 5750 | 3.64e5 | inactive |
| ect (ectodermal) | DRSC10675 | – | – | – | 3883 | 4.52e5 | inactive |
| ect (ectodermal) | DRSC11343 | – | – | – | 6055 | 2.63e5 | inactive |
| ect (ectodermal) | DRSC22357 | – | – | – | 8655 | 5.72e5 | inactive |
| uno (univalents only) | DRSC07244 | – | – | – | 6191 | 3.74e5 | inactive |
| tex | DRSC16517 | – | – | – | 8631 | 4.41e5 | inactive |
| CG31627 | DRSC22143 | – | – | – | 9200 | 5.63e5 | inactive |
| E(spl)m7-HLH (Enhancer of split m7, helix-loop-helix) | DRSC16696 | – | – | – | 6924 | 3.39e5 | inactive |
| CG13894 | DRSC08364 | – | reporter ratio raised past the hit cutoff | – | 4603 | 1.64e5 | inactive |
| CG13894 | DRSC23205 | – | – | – | 4615 | 3.58e5 | inactive |
| CG32772 | DRSC18052 | – | – | – | 2828 | 2.02e5 | inactive |
| CG32772 | DRSC18406 | – | – | – | 7390 | 4.89e5 | inactive |
| CG32772 | DRSC22349 | – | – | – | 8442 | 6.25e5 | inactive |
| CG15653 | DRSC04244 | – | – | – | 6662 | 4.60e5 | inactive |
| DIP-delta (Dpr-interacting protein delta) | DRSC10214 | – | – | – | 6843 | 2.88e5 | inactive |
| DIP-delta (Dpr-interacting protein delta) | DRSC10450 | – | – | – | 5638 | 3.24e5 | inactive |

16 of these entries in another layout.
target gene | amplicon | siRNA reporter hit score | stable siRNA reporter change | miRNA reporter change | stable assay Renilla, run 1 (luminescence) | stable assay firefly, run 1 (luminescence) | call
Smr (Smrter) | DRSC20288 | – | – | – | 4947 | 2.88e5 | inactive
Smr (Smrter) | DRSC22986 | – | reporter ratio raised past the hit cutoff | – | 5051 | 1.66e5 | inactive
Arc2 (Activity-regulated cytoskeleton associated protein 2) | DRSC06436 | – | – | – | 6999 | 4.70e5 | inactive
Tdrd3 (Tudor domain containing 3) | DRSC10016 | – | – | – | 8459 | 3.52e5 | inactive
CG11882 | DRSC14425 | – | – | – | 5750 | 3.64e5 | inactive
ect (ectodermal) | DRSC10675 | – | – | – | 3883 | 4.52e5 | inactive
ect (ectodermal) | DRSC11343 | – | – | – | 6055 | 2.63e5 | inactive
ect (ectodermal) | DRSC22357 | – | – | – | 8655 | 5.72e5 | inactive
uno (univalents only) | DRSC07244 | – | – | – | 6191 | 3.74e5 | inactive
tex | DRSC16517 | – | – | – | 8631 | 4.41e5 | inactive
CG31627 | DRSC22143 | – | – | – | 9200 | 5.63e5 | inactive
E(spl)m7-HLH (Enhancer of split m7, helix-loop-helix) | DRSC16696 | – | – | – | 6924 | 3.39e5 | inactive
CG13894 | DRSC08364 | – | reporter ratio raised past the hit cutoff | – | 4603 | 1.64e5 | inactive
CG13894 | DRSC23205 | – | – | – | 4615 | 3.58e5 | inactive
CG32772 | DRSC18052 | – | – | – | 2828 | 2.02e5 | inactive
CG32772 | DRSC18406 | – | – | – | 7390 | 4.89e5 | inactive

Further results:
| target gene | amplicon | siRNA reporter hit score | stable siRNA reporter change | miRNA reporter change | stable assay Renilla, run 1 (luminescence) | stable assay firefly, run 1 (luminescence) | call |
| --- | --- | --- | --- | --- | --- | --- | --- |
| Lipt2 (Lipoyl(octanoyl) transferase 2) | DRSC12338 | – | – | – | 3527 | 2.73e5 | inactive |
| Lipt2 (Lipoyl(octanoyl) transferase 2) | DRSC22610 | – | – | – | 2767 | 3.27e5 | inactive |
| CG9592 | DRSC11078 | – | – | – | 7649 | 4.33e5 | inactive |
| Npc2f (Niemann-Pick type C-2f) | DRSC15980 | – | – | – | 8011 | 3.55e5 | inactive |
| Opbp (Optix-binding protein) | DRSC04966 | – | – | – | 7355 | 3.58e5 | inactive |
| Hsc70-2 (Heat shock protein 70 cognate 2) | DRSC16710 | 3 | – | – | 6912 | 5.22e5 | inactive |
| DIP-eta (Dpr-interacting protein eta) | DRSC02342 | – | – | – | 7231 | 4.70e5 | inactive |
| Actn3 (alpha actinin 3) | DRSC14106 | – | – | – | 5984 | 3.90e5 | inactive |
| b (black) | DRSC03487 | – | – | – | 8543 | 5.44e5 | inactive |
| pyd3 | DRSC15459 | – | – | – | 4103 | 3.68e5 | inactive |
| pyd3 | DRSC21640 | – | – | – | 8070 | 4.01e5 | inactive |
| Invadolysin | DRSC15527 | – | – | – | 7844 | 5.00e5 | inactive |
| CG13220 | DRSC06342 | – | – | – | 5436 | 3.32e5 | inactive |
| CG14131 | DRSC10135 | – | – | – | 5943 | 4.20e5 | inactive |
| CG13248 | DRSC11696 | – | – | – | 7551 | 4.54e5 | inactive |
| CG8202 | DRSC16396 | – | – | – | 6146 | 3.76e5 | inactive |
| ush (u-shaped) | DRSC00843 | – | – | reporter ratio raised past the hit cutoff | 11522 | 4.02e5 | active |
| CG14102 | DRSC10103 | – | – | – | 7327 | 3.45e5 | inactive |
| Sf3b6 (Splicing factor 3b subunit 6) | DRSC09972 | – | – | – | 8399 | 5.56e5 | inactive |
| PpN58A (Protein phosphatase N at 58A) | DRSC04642 | – | – | – | 15899 | 3.14e5 | inactive |
| CG42361 | DRSC04391 | – | – | – | 6179 | 3.49e5 | inactive |
| Gr98b (Gustatory receptor 98b) | DRSC21675 | – | – | – | 8720 | 4.04e5 | inactive |
| CAH3 (Carbonic anhydrase 3) | DRSC17776 | – | – | – | 5403 | 3.68e5 | inactive |
| CG15614 | DRSC06567 | – | – | – | 5911 | 3.41e5 | inactive |
| CG9899 | DRSC04597 | – | – | – | 5056 | 3.31e5 | inactive |
| CG6244 | DRSC10609 | – | – | – | 7878 | 4.59e5 | inactive |
| Klp98A (Kinesin-like protein at 98A) | DRSC16724 | – | – | – | 6303 | 5.58e5 | inactive |
| Klp98A (Kinesin-like protein at 98A) | DRSC21834 | – | – | – | 10339 | 5.99e5 | inactive |
| CG32099 | DRSC21352 | – | – | – | 8500 | 3.96e5 | inactive |
| Pih1D1 (PIH1 domain containing 1) | DRSC02897 | – | – | – | 65408 | 3.21e5 | inactive |
| Nup50 (Nucleoporin 50kD) | DRSC06827 | – | – | – | 10936 | 3.82e5 | inactive |
| Su(var)3-3 (Suppressor of variegation 3-3) | DRSC10250 | – | – | – | 7763 | 3.10e5 | inactive |
| His1:CG33816 + His1:CG33828 + His1:CG33819 + 21 more | DRSC21266 | – | – | – | 4267 | 3.88e5 | inactive |
| Tm2 (Tropomyosin 2) | DRSC16887 | – | – | – | 6742 | 3.08e5 | inactive |
| Pect (Phosphoethanolamine cytidylyltransferase) | DRSC02867 | – | – | – | 10854 | 1.18e6 | inactive |
| Pect (Phosphoethanolamine cytidylyltransferase) | DRSC02868 | – | – | – | 6130 | 4.93e5 | inactive |
| Scsalpha2 (Succinyl-coenzyme A synthetase alpha subunit 2) | DRSC16003 | – | – | – | 8046 | 3.22e5 | inactive |
| E(spl)m3-HLH (Enhancer of split m3, helix-loop-helix) | DRSC16694 | – | – | – | 5296 | 1.78e5 | inactive |
| E(spl)m3-HLH (Enhancer of split m3, helix-loop-helix) | DRSC23160 | – | – | – | 4991 | 4.41e5 | inactive |
